This passage reports binding signal results from publication PMC7819943, “Rice protein-binding microarrays: a tool to detect cis-acting elements near promoter regions in rice”.

The chains behind the UniProt entries cited, without tags or fusion partners.
UniProt Q0JBA9, entry or part of it: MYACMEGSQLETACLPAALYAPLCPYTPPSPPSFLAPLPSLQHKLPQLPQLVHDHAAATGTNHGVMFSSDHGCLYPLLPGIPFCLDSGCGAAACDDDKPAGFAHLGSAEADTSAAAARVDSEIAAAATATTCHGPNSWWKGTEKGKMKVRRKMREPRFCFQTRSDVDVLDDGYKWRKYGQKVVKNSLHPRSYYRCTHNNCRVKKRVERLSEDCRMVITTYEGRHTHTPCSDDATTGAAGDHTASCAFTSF

The list shows a part of the results.

The assay addresses OsWRKY34 (Oryza sativa, UniProt Q0JBA9 1-250). The assay can be described thus: protein-binding microarray (RPBM); PBS, 2% BSA, 51.3 ng/ul salmon testes DNA, 50 uM zinc acetate, 200 nM TF, 25 C, 1 h; high values mean tight binding. The note with it: protein: recombinant; tags: N-terminal polyhistidine and DsRed monomer fusion (pET32a); label: CyDye5-dUTP incorporated in the synthesized complementary strand; 3' TTTTT single-stranded linker to array surface; dsDNA, one strand shown. An outline of the steps: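 Binding signal is defined as the fluorescence intensity of each feature in arbitrary units, read on an Axon 4000B scanner. Transcription factors with N-terminal polyhistidine and DsRed fusions came from E. coli BL21-CodonPlus and were purified on Ni–NTA. They were incubated at 200 nM for 1 h at 25 °C on a custom Agilent array that had been made double-stranded with Cy5-dUTP, with 50 µM zinc acetate present, and the array was washed.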
Consider “GGCGGATGGGAGATCTGGCGGCGGGGTTGGAGGAGGAGGACGGAGTCACCTAGTGCAG”, for which the binding signal is 10700 fluorescence intensity (a.u.). Under “CATTATTTTGGTGTCATGTACATGTCCTCTCGCGATAACACGGAGTCACCTAGTGCAG” stands 11100 fluorescence intensity (a.u.). Under “TGGCTCAAAATCATGCGCAAGCCGTAATTTCACCTTTCGCCGGAGTCACCTAGTGCAG” stands 9350 fluorescence intensity (a.u.); under “GGCGGCGGGGTGGTCGAGCGAGGGAGGAAGATTCGGAGCGCGGAGTCACCTAGTGCAG”, 8120 fluorescence intensity (a.u.).

As to “GCGCGCGTGTTCTCCTCGATCTCTCCGATCATCATCGCGTCGGAGTCACCTAGTGCAG”, the binding signal was 8460 fluorescence intensity (a.u.).

“CGACGACTCCGCCATCCACCCCGGGGACACCGCCCTCGTCCGGAGTCACCTAGTGCAG”: the binding signal is 11200 fluorescence intensity (a.u.). Under “ACCAAACCTTTTCCCTGTACGTCTACCGTCTACGTGCACCCGGAGTCACCTAGTGCAG” stands 13900 fluorescence intensity (a.u.).

Consider “TGCGCGAGATTTCACTGTATCCCGTCGTGTCCCCGCGTGACGGAGTCACCTAGTGCAG”, for which the binding signal is 8200 fluorescence intensity (a.u.). For “GTAGGAGATCACAAGGTTTCATTTTCACTTTTGTTTGCTACGGAGTCACCTAGTGCAG” the value was 9010 fluorescence intensity (a.u.); for “CATGCAACTTTCAGAAACTCTTCATCTTCATCACACCTTTCGGAGTCACCTAGTGCAG”, 8110 fluorescence intensity (a.u.). For “CACGGCTACCTTCTTTGCTGGTATCACTCAAGCAGCCCTACGGAGTCACCTAGTGCAG” the value was 8200 fluorescence intensity (a.u.); for “CGCACACAGCTAGCTACTCGCTACTCCTCCTACATAGCCACGGAGTCACCTAGTGCAG”, 8520 fluorescence intensity (a.u.). For “ATTTTGTTTTTGCGGCAAGCATTATTTTTGGCTTCACTGACGGAGTCACCTAGTGCAG” the value was 8160 fluorescence intensity (a.u.).

“CTGCCTTAGTTTCAGTCCTCTTCGGCTTGAATTTTTTAAGCGGAGTCACCTAGTGCAG”: the binding signal is 10200 fluorescence intensity (a.u.).

With “CCCTACCGTTAGGCATCTGTTAGTTCTGTTAGTCATACATCGGAGTCACCTAGTGCAG”, the binding signal is 13000 fluorescence intensity (a.u.). For “GAAAATTTACTCAATTTTTCACGCGCACACTTTCTAAACTCGGAGTCACCTAGTGCAG” the value was 8460 fluorescence intensity (a.u.); for “TTTCCCGGTATTTGGCTCTCTTTCTTTTTTCTCCTTTTCTCGGAGTCACCTAGTGCAG”, 8350 fluorescence intensity (a.u.); for “CAGGCCTGTCTTTGTTCTGTTTGTTTCATCTGTATGAAATCGGAGTCACCTAGTGCAG”, 9280 fluorescence intensity (a.u.). On to “CATTTCTCTTGGATTGTTTATTGTCACCACTCGCCAGTCACGGAGTCACCTAGTGCAG”, for which the binding signal is 11700 fluorescence intensity (a.u.). Under “CCTCCTTATTTTTGCACTTGCAAACTGCATTGTTTCACTTCGGAGTCACCTAGTGCAG” stands 11200 fluorescence intensity (a.u.); under “TAATGGAGTGTTCTTGTTCATCTCGTCGTTGCAGCTAGCCCGGAGTCACCTAGTGCAG”, 11000 fluorescence intensity (a.u.). Regarding “ATATAAAGTTTTTAGACCGTCCTATTTGACCCAGATGATACGGAGTCACCTAGTGCAG”, the binding signal is 10500 fluorescence intensity (a.u.). Under “GACTACTTCGGCGCGGCTCTGTTCTCGTCGTTCGTGTTCTCGGAGTCACCTAGTGCAG” stands 9160 fluorescence intensity (a.u.); under “TTAATACCTGGTCTCACCTGTCATACACACATTACGTCTTCGGAGTCACCTAGTGCAG”, 11100 fluorescence intensity (a.u.). For “GCTAACTAGCAATATTTTCCTTTTTTCTGGTAGGTTTTTTCGGAGTCACCTAGTGCAG” the value was 10900 fluorescence intensity (a.u.); for “CCTCTAGCTACCCACTGCCCTCTTTATTTCCTAACTCCAACGGAGTCACCTAGTGCAG”, 9040 fluorescence intensity (a.u.).

Regarding “GTGTCCATGTCCAGTCCTTTGGTTTTGCAACATGTGGTGGCGGAGTCACCTAGTGCAG”, the binding signal is 8870 fluorescence intensity (a.u.). For “GTATTGAGGGCTTAATCGTGGTCGTGGGATATTATTTCATCGGAGTCACCTAGTGCAG” the value was 8390 fluorescence intensity (a.u.); for “ACGAATGGTCAAACACATGCTAAAAAGTCAACTGTGTCAACGGAGTCACCTAGTGCAG”, 9350 fluorescence intensity (a.u.). Take “GCTGTATGCATATGTATGCCTGTATCTGTATCGACAAGGCCGGAGTCACCTAGTGCAG”: the binding signal was 9150 fluorescence intensity (a.u.). For “GACCGCCACTCTGCACATCCTATCTTTCGGGTCGAATTTACGGAGTCACCTAGTGCAG” the value was 11400 fluorescence intensity (a.u.); for “CTCGCCACCAAATCCTCCATAGTCCACACCCCACCACCACCGGAGTCACCTAGTGCAG”, 8170 fluorescence intensity (a.u.). For “AAGACATTGCATCAACCGTCTTGCCAATCTATGTTTTCTACGGAGTCACCTAGTGCAG” the value was 8280 fluorescence intensity (a.u.); for “ATAATTGACTTATTATACTACTTCCTCCGTTTCACAATGTCGGAGTCACCTAGTGCAG”, 8380 fluorescence intensity (a.u.); for “CTCACATCTCCCTTGTTCACTGTTTCTCCTTCACCATTCGCGGAGTCACCTAGTGCAG”, 9490 fluorescence intensity (a.u.). Under “AATACAAATTTTGACGTAAGCTTGCCCAAAGTTTCTTTACCGGAGTCACCTAGTGCAG” stands 8360 fluorescence intensity (a.u.). “TCGTCTCACTTTACTACTCATTCCACTATTGTAAAGTCATCGGAGTCACCTAGTGCAG”: the binding signal is 8520 fluorescence intensity (a.u.). Turning to “TATGTCTTTCACTATACCTAAATGTGTGTTTATTTTTATTCGGAGTCACCTAGTGCAG”, the binding signal was 11400 fluorescence intensity (a.u.). On to “CACAGCCACATACATATGCCTGAATCTTTCTCAGCCTCTTCGGAGTCACCTAGTGCAG”, for which the binding signal is 12700 fluorescence intensity (a.u.). For “CCTCCTCGCCGGCCATCGCGTCGCCGCGCGCCACCCGGTTCGGAGTCACCTAGTGCAG” the value was 8900 fluorescence intensity (a.u.).

As for “AATTTGTTACTACTGCGGGCTTGTTTGGCACAGCTCACCTCGGAGTCACCTAGTGCAG”, the binding signal was 8200 fluorescence intensity (a.u.). For “CACGCAACAGTTGGCAGGCTGAGCTCTCGTGACCCACCTTCGGAGTCACCTAGTGCAG” the value was 8590 fluorescence intensity (a.u.).
